{
  "source": "patent US20230390282A1",
  "about": "“TREATMENT OF EYE CONDITIONS” (The University of Birmingham, priority 2020, published 2023)",
  "key": {"RGC": {"test_system": "RGC", "experiment": "Optic neuritis model: RGC survival and RNFL thickness", "assay_type": "in vivo, mice", "details": "OCT at day 21", "method": "Induction of optic neuritis. […] Animals were intraperitoneally injected with 150 ng Bordetella pertussis toxin on day 0 and 2. Animals were monitored daily and assessed for the development of EAE. At the end of the experiment, animals were then killed by CO2 overdose.\nMeasurement of RNFL thinning using optical coherence tomography (OCT). A Spectralis HRA+OCT machine was used to capture OCT images. Examinations were recorded in both right (oculus dextrus, OD) and left eyes (oculus sinister, OS) of each animal at day 0 and day 21 after immunisation. […] A RNFL single exam using the automatic real time (ART) mode (allows averaging of 100 recordings) was produced for each mouse eye, which automatically measured RNFL thickness (μm) in a 30° circle surrounding the optic nerve head."}, "γH2Ax": {"test_system": "γH2Ax", "details": "retina, 30 days after induction of glaucoma"}},
  "note": "For some assays here: At least one compound was matched to its structure with a doubt left. Some results were stated once for a whole list of compounds, not compound by compound.",
  "data": [
    {"smiles": "N=C1NC(=O)/C(=C/c2ccc(O)cc2)S1", "note": "[mirin]", "values": [
      {"measurement": "protection against retinal nerve fibre layer thinning", "setting": "RGC", "result": "> 97", "unit": "%"},
      {"measurement": "levels of γH2Ax", "setting": "γH2Ax", "result": "attenuates"}
    ]}
  ]
}
